Results are given in words; binding and its absence hold for the method and conditions named. Some entries that bind do so weakly or less than the wild type.
Molecular target: T1, scavenger receptor SR-AI pulled down from macrophage membrane extracts or lysates (UniProt P21757)
T1 sequence (looked up): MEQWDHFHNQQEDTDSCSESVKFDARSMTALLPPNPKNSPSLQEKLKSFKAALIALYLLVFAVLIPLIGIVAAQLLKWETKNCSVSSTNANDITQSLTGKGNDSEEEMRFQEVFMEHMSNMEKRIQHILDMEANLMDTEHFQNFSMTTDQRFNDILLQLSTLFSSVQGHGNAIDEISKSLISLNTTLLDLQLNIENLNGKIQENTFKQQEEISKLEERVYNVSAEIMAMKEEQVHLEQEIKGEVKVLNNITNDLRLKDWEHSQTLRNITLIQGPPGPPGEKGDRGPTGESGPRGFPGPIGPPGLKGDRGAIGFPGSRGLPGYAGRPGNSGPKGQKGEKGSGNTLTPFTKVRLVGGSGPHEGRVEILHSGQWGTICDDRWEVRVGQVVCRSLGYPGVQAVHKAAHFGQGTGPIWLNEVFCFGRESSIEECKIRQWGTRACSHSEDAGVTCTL
Experiment: plate binding assay on SR-AI pulled down from macrophage membrane extracts

Chains of the proteins cited; added tags and fusions are not shown. Lines headed by an entry give the natural chain unless they say otherwise; changes in a name come on top.
UniProt P04792: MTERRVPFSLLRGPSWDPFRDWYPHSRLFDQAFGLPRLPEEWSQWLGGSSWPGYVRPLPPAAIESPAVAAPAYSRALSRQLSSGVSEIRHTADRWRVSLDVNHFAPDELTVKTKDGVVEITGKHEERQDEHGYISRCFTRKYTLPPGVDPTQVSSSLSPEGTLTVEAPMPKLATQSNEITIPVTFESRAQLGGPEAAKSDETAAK

HIS-tagged full-length HSP27 polypeptide (rHSP27) (from UniProt P04792 2-205)
binding: binds

— patent publication US20230210943A1 (PEMI31 THERAPEUTICS, published 2023)
